Residue numbers refer to the chain shown, from its start. Results are given in words; binding and its absence hold for the method and conditions named. Some entries that bind do so weakly or less than the wild type. Where a sequence is shown, tags or fusion partners need not be part of it.
How the values were obtained:
[1] = biological target: T1, GST–Rabin8-WT (human) (UniProt Q96QF0); test: pull-down; 5 μg GST fusion protein on glutathione–Sepharose 4B beads; 2–3 μg purified 6His–Rab8a preloaded with 100 µM GDPβS; RT, 2 h; 50 mM HEPES pH 7.4, 150 mM NaCl, 5 mM MgCl2, 0.1% Triton X-100, 0.1% BSA, 1 mM PMSF; bound Rab8 detected by immunoblotting; both purified
T1 sequence: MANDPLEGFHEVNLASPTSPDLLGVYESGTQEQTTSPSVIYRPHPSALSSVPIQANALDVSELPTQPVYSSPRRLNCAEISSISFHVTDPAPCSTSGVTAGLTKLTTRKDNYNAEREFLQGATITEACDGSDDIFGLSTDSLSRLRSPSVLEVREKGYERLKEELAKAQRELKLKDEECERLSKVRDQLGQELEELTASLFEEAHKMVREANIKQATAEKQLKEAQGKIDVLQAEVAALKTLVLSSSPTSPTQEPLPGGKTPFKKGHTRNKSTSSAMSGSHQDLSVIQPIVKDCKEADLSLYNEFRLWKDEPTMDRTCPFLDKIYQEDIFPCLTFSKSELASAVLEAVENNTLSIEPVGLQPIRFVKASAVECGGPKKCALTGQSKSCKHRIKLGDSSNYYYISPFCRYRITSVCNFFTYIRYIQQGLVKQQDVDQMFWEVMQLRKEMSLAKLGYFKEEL

The chains behind the UniProt entries cited, without tags or fusion partners.
UniProt P61006: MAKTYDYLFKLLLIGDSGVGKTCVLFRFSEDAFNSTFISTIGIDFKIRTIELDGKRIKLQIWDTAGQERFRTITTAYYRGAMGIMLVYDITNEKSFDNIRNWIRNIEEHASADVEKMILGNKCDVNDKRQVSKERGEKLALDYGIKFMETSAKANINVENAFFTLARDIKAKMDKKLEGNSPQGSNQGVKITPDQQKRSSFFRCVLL
UniProt P62491: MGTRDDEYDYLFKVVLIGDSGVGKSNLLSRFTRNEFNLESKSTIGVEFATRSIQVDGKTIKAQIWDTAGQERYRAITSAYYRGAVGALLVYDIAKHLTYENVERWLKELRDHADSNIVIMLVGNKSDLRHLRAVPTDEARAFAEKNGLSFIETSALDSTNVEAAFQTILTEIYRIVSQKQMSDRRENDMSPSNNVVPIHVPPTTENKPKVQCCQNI

[2] = biological target: T2, GST–Rabin8-F201A (human) (UniProt Q96QF0); test: as above
T2 sequence: T1 sequence with F201A

[3] = biological target: T3, GST–Rabin8-S272E (human) (UniProt Q96QF0); test: as above
T3 sequence: T1 sequence with S272E

[4] = biological target: T4, GST–Rabin8-S272A (human) (UniProt Q96QF0); test: as above
T4 sequence: T1 sequence with S272A

[5] = biological target: T5, GST-Rabin8-T419A/Y423A/L428A triple mutant (human) (UniProt Q96QF0); test: as above
T5 sequence: T1 sequence with T419A, Y423A, L428A

[6] = biological target: T6, GST–Rabin8-E192A (human) (UniProt Q96QF0); test: as above
T6 sequence: T1 sequence with E192A

[7] = biological target: T1, GST–Rabin8-WT (human); test: pull-down; 5 μg GST fusion protein on glutathione–Sepharose 4B beads; 2–3 μg purified 6His–Rab11a preloaded with 100 µM GTPγS; RT, 2 h; 50 mM HEPES pH 7.4, 150 mM NaCl, 5 mM MgCl2, 0.1% Triton X-100, 0.1% BSA, 1 mM PMSF; bound Rab11 detected by immunoblotting; both purified
[8] = biological target: T2, GST–Rabin8-F201A (human); test: as above
[9] = biological target: T3, GST–Rabin8-S272E (human); test: as above
[10] = biological target: T4, GST–Rabin8-S272A (human); test: as above
[11] = biological target: T6, GST–Rabin8-E192A (human); test: as above

binding [1] | binding [2] | binding [3] | binding [4] | binding [5] | binding [6] | binding [7] | binding [8] | binding [9] | binding [10] | binding [11] | Substance
binds | binds | binds | binds | binds | binds | – | – | – | – | – | 6His–Rab8a (from UniProt P61006 1-207)
– | – | – | – | – | – | binds | binds | binds | binds | binds | 6His–Rab11a (from UniProt P62491 1-216)

— PMC11828469 (2025)
